Values from PubChem BioAssay AID652243 (Drosophila RNAi Screening Center, 2013)
The deposit covers about 24,000 reagents; this is a random part of those with a known target gene and a result. Over the whole deposit, 246 (1%) got an active call. 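Plates not normalised; calls are printed but the firefly/Renilla ratio behind them is not deposited; fold cut for lowering reported inconsistently.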 The raw values are shown without normalisation. No sequences are given here. The record does not give: the amount of reagent.

Purpose: 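Knock-downs that decrease or increase androgen receptor reporter signal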 (primary screen)
Cells: Drosophila S2R+ cells
Reagent: long dsRNA against Drosophila genes
Duration: 72 h (48 h, then 24 h hormone)
Challenge: synthetic androgen R1881 at 10 nM for 24 h
Read-out: 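Per-well raw luminescence of the androgen-driven firefly reporter and of the Renilla control, two replicates each, without normalisation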
Direction: firefly reporter light: higher = more light from androgen-responsive reporter; Renilla control light: higher = more constitutive control signal (cell number, transfection)
Rule for the call: 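Across duplicate plates, a knock-down whose log firefly/Renilla ratio shifted a set fold down or up from the GFP/LacZ control mean was a hit; the downward cut appears as both 1.5 and 3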
Calls: active = hit: reporter lowered or raised; inactive = no hit

For CG31823 [DRSC01887] the deposit lists firefly reporter light, replicate 1 = 1.52e5; firefly reporter light, replicate 2 = 1.82e5; Renilla control light, replicate 1 = 1.53e6; Renilla control light, replicate 2 = 2.38e6; inactive. LRP1 (LDL receptor protein 1) [DRSC07238] gave firefly reporter light, replicate 1 = 3.30e5; firefly reporter light, replicate 2 = 2.71e5; Renilla control light, replicate 1 = 1.96e6; Renilla control light, replicate 2 = 1.33e6; inactive. CG1774 [DRSC15258] scored firefly reporter light, replicate 1 = 52914; firefly reporter light, replicate 2 = 50368; Renilla control light, replicate 1 = 4.32e5; Renilla control light, replicate 2 = 3.16e5; inactive. For Tfb4 (Transcription factor B4) [DRSC00675], the values are firefly reporter light, replicate 1 = 67797; firefly reporter light, replicate 2 = 73256; Renilla control light, replicate 1 = 6.73e5; Renilla control light, replicate 2 = 6.44e5; inactive. Knock-down of Tfb4 (Transcription factor B4) [DRSC26946] came out at: firefly reporter light, replicate 1 = 4.52e5; firefly reporter light, replicate 2 = 4.46e5; Renilla control light, replicate 1 = 6.31e5; Renilla control light, replicate 2 = 4.10e5; inactive. After knock-down of S-Lap4 (Sperm-Leucylaminopeptidase 4) [DRSC10957], the record shows firefly reporter light, replicate 1 = 1.67e5; firefly reporter light, replicate 2 = 2.31e5; Renilla control light, replicate 1 = 1.84e6; Renilla control light, replicate 2 = 1.98e6; inactive.

Depletion of S-Lap4 (Sperm-Leucylaminopeptidase 4) [DRSC25977] resulted in: firefly reporter light, replicate 1 = 3.10e5; firefly reporter light, replicate 2 = 5.03e5; Renilla control light, replicate 1 = 9.35e5; Renilla control light, replicate 2 = 9.36e5; inactive. Knock-down of Takl1 (Tak1-like 1) [DRSC13443] gave: firefly reporter light, replicate 1 = 1.87e5; firefly reporter light, replicate 2 = 43922; Renilla control light, replicate 1 = 2.62e5; Renilla control light, replicate 2 = 2.09e5; inactive. Takl1 (Tak1-like 1) [DRSC28251] gave firefly reporter light, replicate 1 = 5.85e5; firefly reporter light, replicate 2 = 6.97e5; Renilla control light, replicate 1 = 9.40e5; Renilla control light, replicate 2 = 1.20e6; inactive. Dgkepsilon (Diacyl glycerol kinase epsilon) [DRSC07399] scored firefly reporter light, replicate 1 = 1.14e6; firefly reporter light, replicate 2 = 1.22e6; Renilla control light, replicate 1 = 1.84e6; Renilla control light, replicate 2 = 2.09e6; inactive. Silencing of Dgkepsilon (Diacyl glycerol kinase epsilon) [DRSC36733] resulted in: inactive.

Reprinted from above for reference:
Takl1 (Tak1-like 1) [DRSC28251] → firefly reporter light, replicate 1 = 5.85e5; firefly reporter light, replicate 2 = 6.97e5; Renilla control light, replicate 1 = 9.40e5; Renilla control light, replicate 2 = 1.20e6; call = inactive
Dgkepsilon (Diacyl glycerol kinase epsilon) [DRSC07399] → firefly reporter light, replicate 1 = 1.14e6; firefly reporter light, replicate 2 = 1.22e6; Renilla control light, replicate 1 = 1.84e6; Renilla control light, replicate 2 = 2.09e6; call = inactive
Dgkepsilon (Diacyl glycerol kinase epsilon) [DRSC36733] → call = inactive

The list goes on:
Against Rpi (Ribose-5-phosphate isomerase) [DRSC04583] the deposit lists firefly reporter light, replicate 1 = 2.55e5; firefly reporter light, replicate 2 = 2.48e5; Renilla control light, replicate 1 = 2.07e6; Renilla control light, replicate 2 = 1.81e6; inactive. For CG10431 [DRSC02055], the entry reads firefly reporter light, replicate 1 = 1.66e5; firefly reporter light, replicate 2 = 1.76e5; Renilla control light, replicate 1 = 1.84e6; Renilla control light, replicate 2 = 2.00e6; inactive. For CG32762 [DRSC18298], the entry reads firefly reporter light, replicate 1 = 4.10e5; firefly reporter light, replicate 2 = 4.16e5; Renilla control light, replicate 1 = 3.37e6; Renilla control light, replicate 2 = 2.84e6; inactive. CG32762 [DRSC24339] showed firefly reporter light, replicate 1 = 7.46e5; firefly reporter light, replicate 2 = 7.22e5; Renilla control light, replicate 1 = 9.81e5; Renilla control light, replicate 2 = 1.16e6; inactive. Silencing of CG5177 [DRSC02824] gave: firefly reporter light, replicate 1 = 6.94e5; firefly reporter light, replicate 2 = 8.93e5; Renilla control light, replicate 1 = 1.95e6; Renilla control light, replicate 2 = 2.38e6; inactive. Depletion of CG5177 [DRSC39260] gave: inactive.

gb (genderblind) [DRSC15961] scored firefly reporter light, replicate 1 = 1.21e5; firefly reporter light, replicate 2 = 95723; Renilla control light, replicate 1 = 8.57e5; Renilla control light, replicate 2 = 7.17e5; inactive. After knock-down of gb (genderblind) [DRSC24834], the screen gave firefly reporter light, replicate 1 = 5.96e5; firefly reporter light, replicate 2 = 1.13e6; Renilla control light, replicate 1 = 9.02e5; Renilla control light, replicate 2 = 7.49e5; inactive. Twdlalpha (Tweedlealpha) [DRSC19914] scored firefly reporter light, replicate 1 = 3.42e5; firefly reporter light, replicate 2 = 2.03e5; Renilla control light, replicate 1 = 3.05e6; Renilla control light, replicate 2 = 2.25e6; inactive. Silencing of Twdlalpha (Tweedlealpha) [DRSC28661] gave: firefly reporter light, replicate 1 = 5.03e5; firefly reporter light, replicate 2 = 3.68e5; Renilla control light, replicate 1 = 1.18e6; Renilla control light, replicate 2 = 1.34e6; inactive.
